# According to patent US7531505B2 (Affinergy, Inc., priority 2006, dated 2009):
# Assay: Fmoc solid-phase peptide synthesis; HBTU/HOBt/NMM
# Conditions: whole synthesis, analytical HPLC (C-18)
substance,measurement,value
SSFYGEVGYVGASLYAGGASSRG-PEG-SSHRTNHKKNNPKKKNKTRG (SSHRTNHKKNNPKKKNKTRGSSFYGEVGYVGASLYAGGASSRG; PEG10 linker joining SEQ 3 and SEQ 19),final purity (method not given),>95% purity
